We go through 35 targets from the supplement of paper PMC7666118.

Amino acid sequences for entries named in this document (tags omitted). A change or cut given only in a name is not applied to a line headed by its entry.
UniProt Q15418, whole entry: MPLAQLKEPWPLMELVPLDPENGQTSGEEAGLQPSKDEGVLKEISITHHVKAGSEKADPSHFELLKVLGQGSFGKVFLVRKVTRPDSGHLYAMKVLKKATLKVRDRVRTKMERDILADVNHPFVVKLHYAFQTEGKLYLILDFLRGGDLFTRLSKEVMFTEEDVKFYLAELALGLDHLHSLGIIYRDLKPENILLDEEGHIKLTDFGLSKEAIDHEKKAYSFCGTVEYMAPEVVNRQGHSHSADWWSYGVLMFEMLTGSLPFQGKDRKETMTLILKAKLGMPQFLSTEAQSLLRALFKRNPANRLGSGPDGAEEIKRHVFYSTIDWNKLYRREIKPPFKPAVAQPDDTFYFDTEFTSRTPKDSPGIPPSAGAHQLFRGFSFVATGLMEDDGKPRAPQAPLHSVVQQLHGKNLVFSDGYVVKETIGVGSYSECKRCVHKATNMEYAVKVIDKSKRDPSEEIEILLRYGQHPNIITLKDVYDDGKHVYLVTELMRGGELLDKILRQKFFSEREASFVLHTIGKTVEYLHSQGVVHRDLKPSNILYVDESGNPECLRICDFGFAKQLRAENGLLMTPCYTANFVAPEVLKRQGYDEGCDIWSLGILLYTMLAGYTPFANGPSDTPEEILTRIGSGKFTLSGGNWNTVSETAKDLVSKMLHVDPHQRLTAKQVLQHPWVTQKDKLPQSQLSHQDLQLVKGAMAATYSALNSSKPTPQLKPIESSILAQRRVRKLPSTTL
UniProt P61586, whole entry: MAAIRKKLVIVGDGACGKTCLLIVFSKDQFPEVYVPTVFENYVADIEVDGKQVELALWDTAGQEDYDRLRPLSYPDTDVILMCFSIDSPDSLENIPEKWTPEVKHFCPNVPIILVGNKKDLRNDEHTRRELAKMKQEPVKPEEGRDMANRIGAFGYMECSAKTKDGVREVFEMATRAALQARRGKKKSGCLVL
UniProt Q15459: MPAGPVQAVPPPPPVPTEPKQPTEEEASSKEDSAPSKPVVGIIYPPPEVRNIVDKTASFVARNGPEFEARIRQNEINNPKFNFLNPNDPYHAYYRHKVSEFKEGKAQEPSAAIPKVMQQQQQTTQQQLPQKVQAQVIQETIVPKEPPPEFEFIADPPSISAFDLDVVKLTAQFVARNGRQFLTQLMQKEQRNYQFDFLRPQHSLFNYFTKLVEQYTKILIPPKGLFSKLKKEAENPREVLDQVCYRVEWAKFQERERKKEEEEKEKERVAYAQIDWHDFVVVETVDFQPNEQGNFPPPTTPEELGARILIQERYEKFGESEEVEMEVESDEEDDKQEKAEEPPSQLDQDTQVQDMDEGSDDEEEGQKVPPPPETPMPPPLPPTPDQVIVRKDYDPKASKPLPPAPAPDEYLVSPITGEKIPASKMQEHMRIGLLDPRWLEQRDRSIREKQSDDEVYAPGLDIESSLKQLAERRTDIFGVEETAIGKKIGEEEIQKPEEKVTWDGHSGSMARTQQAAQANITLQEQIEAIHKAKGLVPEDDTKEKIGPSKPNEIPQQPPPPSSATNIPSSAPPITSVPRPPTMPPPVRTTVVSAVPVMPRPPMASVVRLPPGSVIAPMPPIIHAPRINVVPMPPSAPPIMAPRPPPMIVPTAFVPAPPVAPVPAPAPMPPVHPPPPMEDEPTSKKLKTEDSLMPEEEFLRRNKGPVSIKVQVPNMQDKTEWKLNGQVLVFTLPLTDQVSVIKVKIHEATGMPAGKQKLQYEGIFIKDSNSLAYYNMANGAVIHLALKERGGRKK
UniProt P21912: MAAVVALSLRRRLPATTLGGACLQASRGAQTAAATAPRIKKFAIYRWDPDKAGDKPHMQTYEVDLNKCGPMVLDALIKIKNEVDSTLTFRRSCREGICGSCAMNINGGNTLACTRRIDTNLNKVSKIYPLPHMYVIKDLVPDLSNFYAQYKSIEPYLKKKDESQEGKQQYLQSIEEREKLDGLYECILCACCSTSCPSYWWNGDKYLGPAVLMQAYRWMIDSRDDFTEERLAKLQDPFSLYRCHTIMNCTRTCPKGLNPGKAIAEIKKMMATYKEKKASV
UniProt Q5VTB9: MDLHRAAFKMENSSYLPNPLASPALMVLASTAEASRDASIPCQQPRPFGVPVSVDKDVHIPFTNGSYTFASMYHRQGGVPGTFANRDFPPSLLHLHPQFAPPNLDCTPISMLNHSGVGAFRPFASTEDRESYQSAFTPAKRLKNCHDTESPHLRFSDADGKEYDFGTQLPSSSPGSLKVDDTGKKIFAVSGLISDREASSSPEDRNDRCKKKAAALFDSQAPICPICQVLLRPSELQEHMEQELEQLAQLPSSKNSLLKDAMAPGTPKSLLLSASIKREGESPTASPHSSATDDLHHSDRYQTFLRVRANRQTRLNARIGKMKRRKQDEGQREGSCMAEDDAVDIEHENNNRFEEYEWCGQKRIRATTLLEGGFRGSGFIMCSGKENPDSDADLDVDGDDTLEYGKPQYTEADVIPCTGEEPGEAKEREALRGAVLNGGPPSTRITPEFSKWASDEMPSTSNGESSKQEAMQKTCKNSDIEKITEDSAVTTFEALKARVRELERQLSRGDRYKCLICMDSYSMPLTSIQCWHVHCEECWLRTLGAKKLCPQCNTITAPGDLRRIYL
UniProt P53992: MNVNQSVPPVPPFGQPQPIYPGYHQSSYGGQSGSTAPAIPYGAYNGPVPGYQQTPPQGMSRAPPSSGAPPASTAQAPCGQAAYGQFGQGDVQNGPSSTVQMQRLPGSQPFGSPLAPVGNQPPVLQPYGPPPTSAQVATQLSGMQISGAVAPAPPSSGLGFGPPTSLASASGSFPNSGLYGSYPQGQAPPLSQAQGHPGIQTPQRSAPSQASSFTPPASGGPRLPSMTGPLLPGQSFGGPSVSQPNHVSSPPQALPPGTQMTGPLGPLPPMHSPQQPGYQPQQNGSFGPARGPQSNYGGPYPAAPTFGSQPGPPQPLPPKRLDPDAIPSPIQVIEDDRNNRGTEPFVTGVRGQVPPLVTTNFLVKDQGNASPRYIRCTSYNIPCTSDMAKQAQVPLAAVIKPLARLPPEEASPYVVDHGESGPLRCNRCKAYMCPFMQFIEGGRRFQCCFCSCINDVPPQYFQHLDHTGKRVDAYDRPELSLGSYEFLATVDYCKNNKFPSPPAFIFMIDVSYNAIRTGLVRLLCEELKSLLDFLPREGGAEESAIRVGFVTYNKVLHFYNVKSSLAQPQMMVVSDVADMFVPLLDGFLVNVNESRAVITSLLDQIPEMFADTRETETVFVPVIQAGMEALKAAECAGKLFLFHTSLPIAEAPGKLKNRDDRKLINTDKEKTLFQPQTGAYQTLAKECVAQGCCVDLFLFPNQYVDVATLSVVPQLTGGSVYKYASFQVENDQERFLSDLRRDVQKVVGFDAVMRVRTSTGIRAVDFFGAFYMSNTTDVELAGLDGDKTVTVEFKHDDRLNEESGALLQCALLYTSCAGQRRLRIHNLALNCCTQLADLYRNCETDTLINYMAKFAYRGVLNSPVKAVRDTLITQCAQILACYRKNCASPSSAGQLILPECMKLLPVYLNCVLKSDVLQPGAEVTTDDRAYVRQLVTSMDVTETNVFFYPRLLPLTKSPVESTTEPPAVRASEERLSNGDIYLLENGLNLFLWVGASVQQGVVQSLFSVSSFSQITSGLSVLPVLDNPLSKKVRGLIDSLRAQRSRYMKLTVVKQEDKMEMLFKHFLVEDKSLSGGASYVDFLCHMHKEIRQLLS
UniProt P27694, whole entry: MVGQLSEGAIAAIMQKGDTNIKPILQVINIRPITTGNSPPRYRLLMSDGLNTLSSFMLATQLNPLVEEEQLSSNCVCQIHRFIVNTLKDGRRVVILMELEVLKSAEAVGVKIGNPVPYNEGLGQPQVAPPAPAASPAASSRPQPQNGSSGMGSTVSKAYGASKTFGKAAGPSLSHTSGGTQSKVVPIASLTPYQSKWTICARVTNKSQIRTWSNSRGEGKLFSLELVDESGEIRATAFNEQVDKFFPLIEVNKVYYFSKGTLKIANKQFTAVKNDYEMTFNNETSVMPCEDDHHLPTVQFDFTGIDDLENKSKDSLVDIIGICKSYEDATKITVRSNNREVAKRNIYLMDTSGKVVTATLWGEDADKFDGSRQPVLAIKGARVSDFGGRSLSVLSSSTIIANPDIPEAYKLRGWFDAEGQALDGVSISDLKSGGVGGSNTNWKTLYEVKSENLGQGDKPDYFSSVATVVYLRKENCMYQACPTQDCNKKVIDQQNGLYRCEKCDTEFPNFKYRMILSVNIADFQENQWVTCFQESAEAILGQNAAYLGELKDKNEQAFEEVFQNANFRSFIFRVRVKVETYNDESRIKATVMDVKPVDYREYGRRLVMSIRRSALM
UniProt O75995: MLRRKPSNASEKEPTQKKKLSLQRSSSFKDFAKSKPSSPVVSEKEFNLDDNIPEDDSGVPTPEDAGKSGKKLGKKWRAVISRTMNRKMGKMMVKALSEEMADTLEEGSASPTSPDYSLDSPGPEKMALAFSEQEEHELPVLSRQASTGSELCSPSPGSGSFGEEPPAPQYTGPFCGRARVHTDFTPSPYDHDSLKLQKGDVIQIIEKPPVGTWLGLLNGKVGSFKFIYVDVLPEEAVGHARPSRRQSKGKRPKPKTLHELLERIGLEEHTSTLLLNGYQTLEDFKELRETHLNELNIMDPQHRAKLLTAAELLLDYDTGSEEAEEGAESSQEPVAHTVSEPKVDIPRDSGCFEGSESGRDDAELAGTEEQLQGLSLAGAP
UniProt Q15428: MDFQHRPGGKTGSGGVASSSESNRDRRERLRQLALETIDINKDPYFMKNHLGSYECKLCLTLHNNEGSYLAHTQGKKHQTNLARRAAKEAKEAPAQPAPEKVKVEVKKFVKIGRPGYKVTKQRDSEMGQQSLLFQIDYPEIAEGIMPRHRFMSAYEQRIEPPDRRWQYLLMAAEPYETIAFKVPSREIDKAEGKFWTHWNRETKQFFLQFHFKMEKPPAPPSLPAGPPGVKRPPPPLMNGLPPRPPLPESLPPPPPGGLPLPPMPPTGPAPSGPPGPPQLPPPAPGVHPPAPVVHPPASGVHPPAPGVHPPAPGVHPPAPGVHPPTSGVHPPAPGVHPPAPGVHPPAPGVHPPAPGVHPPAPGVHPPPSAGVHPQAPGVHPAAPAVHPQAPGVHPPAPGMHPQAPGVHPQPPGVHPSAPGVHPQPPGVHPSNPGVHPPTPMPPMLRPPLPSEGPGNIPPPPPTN
UniProt Q9Y371: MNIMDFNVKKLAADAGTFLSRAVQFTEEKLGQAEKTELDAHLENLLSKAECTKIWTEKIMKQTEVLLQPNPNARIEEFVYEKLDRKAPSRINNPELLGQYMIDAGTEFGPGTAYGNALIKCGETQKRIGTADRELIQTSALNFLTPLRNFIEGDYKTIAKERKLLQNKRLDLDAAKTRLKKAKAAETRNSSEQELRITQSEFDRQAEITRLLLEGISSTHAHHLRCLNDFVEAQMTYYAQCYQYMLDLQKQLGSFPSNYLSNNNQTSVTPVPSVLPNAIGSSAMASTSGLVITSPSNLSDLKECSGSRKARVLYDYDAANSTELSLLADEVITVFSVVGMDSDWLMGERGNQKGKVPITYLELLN
UniProt Q9BRS2: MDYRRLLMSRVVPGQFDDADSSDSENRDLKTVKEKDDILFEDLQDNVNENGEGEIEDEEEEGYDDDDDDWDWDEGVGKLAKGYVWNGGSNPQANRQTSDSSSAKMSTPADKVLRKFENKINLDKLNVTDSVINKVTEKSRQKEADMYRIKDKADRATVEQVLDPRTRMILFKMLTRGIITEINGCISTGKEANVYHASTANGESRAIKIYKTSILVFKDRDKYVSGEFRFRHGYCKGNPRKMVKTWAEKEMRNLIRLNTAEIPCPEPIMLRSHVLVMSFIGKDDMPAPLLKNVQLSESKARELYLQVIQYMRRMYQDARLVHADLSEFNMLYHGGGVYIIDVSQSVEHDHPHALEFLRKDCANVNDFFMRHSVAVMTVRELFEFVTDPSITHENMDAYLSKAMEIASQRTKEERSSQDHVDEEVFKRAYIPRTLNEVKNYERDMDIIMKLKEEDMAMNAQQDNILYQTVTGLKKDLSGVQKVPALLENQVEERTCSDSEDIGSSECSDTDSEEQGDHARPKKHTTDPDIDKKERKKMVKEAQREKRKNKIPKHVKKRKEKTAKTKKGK
UniProt Q9UGK8: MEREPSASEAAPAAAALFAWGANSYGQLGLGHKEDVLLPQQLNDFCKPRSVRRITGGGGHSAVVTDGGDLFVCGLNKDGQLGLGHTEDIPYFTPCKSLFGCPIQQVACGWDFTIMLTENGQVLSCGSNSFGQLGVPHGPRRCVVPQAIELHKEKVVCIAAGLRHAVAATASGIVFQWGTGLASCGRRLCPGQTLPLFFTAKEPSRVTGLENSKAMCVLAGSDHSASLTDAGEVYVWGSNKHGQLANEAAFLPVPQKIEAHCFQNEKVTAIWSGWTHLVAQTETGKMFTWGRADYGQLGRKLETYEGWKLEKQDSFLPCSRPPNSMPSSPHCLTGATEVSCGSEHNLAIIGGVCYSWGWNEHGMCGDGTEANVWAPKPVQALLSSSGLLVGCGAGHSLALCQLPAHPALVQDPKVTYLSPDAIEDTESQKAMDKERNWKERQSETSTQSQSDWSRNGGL

This is one part of the list.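 The calls were made as follows: active = dose-dependent thermal stabilisation significant by F-test of dose-response against flat model at 10% FDR; inactive = not significant.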

Compound in this assay: Nc1nc2c(ncn2[C@@H]2O[C@H](COP(=O)(O)OP(=O)(O)OP(=O)(O)O)[C@@H](O)[C@H]2O)c(=O)[nH]1
The assay is described as follows: dose-dependent thermal stabilisation call (2D-TPP, DLPTP, 10% FDR) (binary (1 = stabilised)); higher = stabilised by the compound. Particulars: system: Jurkat gel-filtered lysate; concentration range 1-500 µM.
Consider RSU1 (UniProt Q15404), for which the “dose-dependent thermal stabilisation call” value was inactive: 0. RWDD3 (UniProt Q9Y3V2): the “dose-dependent thermal stabilisation call” value is inactive: 0.

Turning to RPS6KA1 (UniProt Q15418), the “dose-dependent thermal stabilisation call” value is active: 1. The same measure for RWDD1 (UniProt Q9H446): inactive: 0; for RPS7 (UniProt P62081): active: 1. The same measure for RHOA (UniProt P61586): active: 1; for RNASEH2A (UniProt O75792): inactive: 0; for SF3A1 (UniProt Q15459): inactive: 0. The value for RYDEN (UniProt Q9NUL5) was inactive: 0. For the target SDHB (UniProt P21912), the “dose-dependent thermal stabilisation call” value is inactive: 0. In the case of RPLP0 (UniProt P05388), the “dose-dependent thermal stabilisation call” value was inactive: 0.

For the target RRP9 (UniProt O43818), the “dose-dependent thermal stabilisation call” value was inactive: 0. The same measure for SEMA4D (UniProt Q92854): inactive: 0. The same measure for RNF220 (UniProt Q5VTB9): inactive: 0. Take RNF169 (UniProt Q8NCN4): the “dose-dependent thermal stabilisation call” value is inactive: 0. The value for SEC24C (UniProt P53992) was inactive: 0; that for SECISBP2 (UniProt Q96T21) was inactive: 0. The same measure for RPA1 (UniProt P27694): inactive: 0; for SASH3 (UniProt O75995): inactive: 0. In the case of RNF166 (UniProt Q96A37), the “dose-dependent thermal stabilisation call” value was inactive: 0.

On to RPTOR (UniProt Q8N122), for which the “dose-dependent thermal stabilisation call” value was inactive: 0.

As for REPS1 (UniProt Q96D71), the “dose-dependent thermal stabilisation call” value was inactive: 0.

With SETX (UniProt Q7Z333), the “dose-dependent thermal stabilisation call” value is inactive: 0.

For RIPK1 (UniProt Q13546), the “dose-dependent thermal stabilisation call” value was inactive: 0. The value for RNF34 (UniProt Q969K3) was inactive: 0. The same measure for SGO2 (UniProt Q562F6): inactive: 0; for SF3A2 (UniProt Q15428): inactive: 0; for SEPTIN3 (UniProt Q9UH03): active: 1.

RPAP3 (UniProt Q9H6T3): the “dose-dependent thermal stabilisation call” value is inactive: 0. The value for SH3GLB1 (UniProt Q9Y371) was active: 1.

For the target RSBN1L (UniProt Q6PCB5), the “dose-dependent thermal stabilisation call” value is inactive: 0.

RIOK1 (UniProt Q9BRS2): the “dose-dependent thermal stabilisation call” value was active: 1.

With SERGEF (UniProt Q9UGK8), the “dose-dependent thermal stabilisation call” value is inactive: 0. The same measure for SETD2 (UniProt Q9BYW2): inactive: 0; for SDCCAG8 (UniProt Q86SQ7): inactive: 0.
